Experimental data: PubChem BioAssay AID1259254 (NCATS, 2017)
Test: 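Gene knock-downs that lead to re-replication, shown by excess G2 DNA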 (primary screen). Cell system: human HCT116 colorectal cancer cells. Knock-down reagent: single siRNA against human genes. Duration: 3 days. Read-out: 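Imaged Hoechst DNA stain sorts each cell into a cycle phase by DNA amount; per plate, G2 fraction set to 0% for non-targeting and 100% for GMNN siRNA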. Direction: G2 robust z-score: higher = more G2 cells, more excess DNA replication. Call rule: 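An siRNA counts as active if its G2 robust z-score lies at least 5 MADs above the screen median; here such calls match roughly 38% of GMNN control or more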.
The deposit covers about 59,000 reagents; this is a part drawn at random. About 1,550 of them (2.6%) count as active. 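G2 share is only a proxy for re-replication; each gene was hit by three separate siRNAs, and active genes were retested.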 Not all columns of the deposit are shown. Not given: the amount of reagent.

{"gene knocked down": "KCTD8", "PubChem SID": "SID160765544", "G2 robust z-score": 0.0432, "call": "inactive"}
{"gene knocked down": "KCTD8", "PubChem SID": "SID160765545", "G2 robust z-score": 2.82, "call": "inactive"}
{"gene knocked down": "KCTD8", "PubChem SID": "SID160765546", "G2 robust z-score": 0.116, "call": "inactive"}
{"gene knocked down": "GHDC", "PubChem SID": "SID160735101", "G2 robust z-score": 0.146, "call": "inactive"}
{"gene knocked down": "GHDC", "PubChem SID": "SID160752334", "G2 robust z-score": 0.862, "call": "inactive"}
{"gene knocked down": "GHDC", "PubChem SID": "SID160752335", "G2 robust z-score": 0.701, "call": "inactive"}
{"gene knocked down": "SSUH2", "PubChem SID": "SID160739957", "G2 robust z-score": -0.471, "call": "inactive"}
{"gene knocked down": "SSUH2", "PubChem SID": "SID160739958", "G2 robust z-score": 0.00139, "call": "inactive"}
{"gene knocked down": "SSUH2", "PubChem SID": "SID160739959", "G2 robust z-score": 0.267, "call": "inactive"}
{"gene knocked down": "PKMYT1", "PubChem SID": "SID160724214", "G2 robust z-score": 0.127, "call": "inactive"}
{"gene knocked down": "PKMYT1", "PubChem SID": "SID160724215", "G2 robust z-score": 0.0553, "call": "inactive"}
{"gene knocked down": "PKMYT1", "PubChem SID": "SID160732132", "G2 robust z-score": -0.169, "call": "inactive"}

Targets listed so far whose target name begins with P or p (3):
{"gene knocked down": "PKMYT1", "PubChem SID": "SID160724214", "G2 robust z-score": 0.127, "call": "inactive"}
{"gene knocked down": "PKMYT1", "PubChem SID": "SID160724215", "G2 robust z-score": 0.0553, "call": "inactive"}
{"gene knocked down": "PKMYT1", "PubChem SID": "SID160732132", "G2 robust z-score": -0.169, "call": "inactive"}
